# Values joined by “and” are separate entries in the source; they are usually repeats but may differ in a detail not shown here. Equal entries are not always repeated. The list shows a part of the results. Shown are side measurements of this screen, not its main read-out; they come without a call. For some of these results: Compounds called inactive in the main read-out are mostly missing here. The note in brackets gives the kind of curve behind each potency; many fits are weak.
# Chains of the proteins cited; added tags and fusions are not shown. Lines headed by an entry give the natural chain unless they say otherwise; changes in a name come on top.
# UniProt P21964: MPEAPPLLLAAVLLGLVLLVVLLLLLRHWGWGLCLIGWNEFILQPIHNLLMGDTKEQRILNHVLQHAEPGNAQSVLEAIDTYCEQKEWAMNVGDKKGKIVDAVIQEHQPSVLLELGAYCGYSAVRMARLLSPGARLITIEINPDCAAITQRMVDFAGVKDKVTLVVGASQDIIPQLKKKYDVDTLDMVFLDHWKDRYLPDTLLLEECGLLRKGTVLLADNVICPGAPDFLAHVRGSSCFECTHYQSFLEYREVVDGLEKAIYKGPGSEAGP
# UniProt P50135: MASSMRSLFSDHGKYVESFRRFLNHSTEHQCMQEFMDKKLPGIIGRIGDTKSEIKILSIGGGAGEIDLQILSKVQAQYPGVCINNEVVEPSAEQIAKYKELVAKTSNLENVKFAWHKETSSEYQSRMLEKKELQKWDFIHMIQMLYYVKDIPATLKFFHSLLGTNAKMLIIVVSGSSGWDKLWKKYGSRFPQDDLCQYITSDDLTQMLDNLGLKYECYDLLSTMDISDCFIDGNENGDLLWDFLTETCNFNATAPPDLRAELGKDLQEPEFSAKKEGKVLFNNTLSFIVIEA
# Assays:
# [1] = qHTS Assay for Inhibitors of PDE-IV (AID 607); settings: HEK293 ACTOne CNG channel cells, membrane potential fluorescence; measured here: parental cell counter-screen
# Outline: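 The readout is membrane depolarisation from a cAMP-sensing CNG channel, detected with a potential dye at ex 535/em 590. Cells were HEK293-derived (endogenous PDE-IV) at 1000 cells/well, titrated up to 22.9 uM final.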
# [2] = qHTS Assay for Lipid Storage Modulators (AID 1519); settings: Drosophila S3 cells, BODIPY lipid droplet/cell ratio, laser cytometry, cells loaded with oleic acid
# Outline: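 Cells seeded at 5,000 per well were treated with compounds over a concentration series and loaded with oleic acid (400 uM, as added). Lipid droplet fluorescence (488 nm excitation, 500-530 nm channel) was read by laser-scanning cytometry and normalized to 20 uM Triacsin C.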
# [3] = A High-Content qHTS Against Drug Library for the Identification of Small Molecules that Inhibit DYT1 Early Onset Primary Dystonia-Associated Cell Pathology (AID 1645839); settings: HEK293 Flp-In EGFP-delE TorsinA, punctate imaging, 48 h; measured here: cell count cytotoxicity
# Outline: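 Cells were seeded and left for 24 h, then dosed with compound alongside tetracycline induction of mutant EGFP-TorsinA. They were incubated for 48 h, fixed in 4% paraformaldehyde, permeabilized and imaged for mislocalization (%pathology) and cell count.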
# [4] = qHTS drug screen for cell cycle checkpoint inhibitors in PARPi-resistant BRCA-mutant ovarian cancer cell lines. (AID 1963452); settings: PEO1/OlaR viability, CellTiter-Glo luminescence, 96 h
# Outline: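 PEO1, PEO4 and PEO1/OlaR ovarian cancer cells, 600 per well, exposed 96 h at 37C to a dilution series. Viability read by CellTiter-Glo luminescence, normalized to DMSO and empty wells; activity summarized as Z-AUC.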
# [5] = qHTS for identification of novel therapeutic agents for treatment of microphthalmiaassociated transcription factor (MiT) renal cell carcinoma (RCC) (AID 1963991); settings: CellTiter-Glo, 48 h; for z-score: stronger effect = lower value;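 as to z-score: curves scaled with 100% = DMSO viability and 0% = empty wells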
# Outline: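 UOK109/UOK124/UOK145 (TFE3 fusions, three partners); 500 cells/well; MIPE v4.0, 1912 cpds, 11 conc.; 48 h, 37 C; CellTiter-Glo, 15 min RT; lum. Norm.: DMSO 100%, empty 0%.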
# [6] = qHTS Assay for Modulators of Human Peripheral Myelin Protein 22 (PMP22) Expression/Activity (AID 1967); settings: Cell-based PMP22 reporter, dual-color luciferase ratio
# Outline: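 Mouse MSC80 Schwann cells carrying Pmp22 promoter–green click beetle luciferase plus EF-alpha–red luciferase control, dosed 24 h at 37 °C. Dual-filter luminescence, overlap-corrected; %Activity from green/red ratio normalised to untreated cells, concentration-response curves fitted.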
# [7] = qHTS Validation Assay to Find Inhibitors of Chronic Active B-Cell Receptor Signaling (AID 485345); settings: ABC-DLBCL cells, chronic BCR signaling reporter
# Outline: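 TMD8 ABC-DLBCL cells stably carrying doxycycline-inducible IkappaBalpha–green luciferase fusion plus unfused red luciferase; compounds 46 uM to 3 nM, 4 h at 37C with doxycycline. Corrected green/red luminescence ratio normalized to 10 uM MG-132 and basal cell wells; curves fitted.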
# [8] = S16 Schwann cell PMP22 intronic element beta-lactamase assay (AID 624044); settings: S16 rat Schwann cells, PMP22 element beta-lactamase FRET, 24 h; measured here: 460 nm blue channel
# Outline: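 Beta-lactamase reporter under a PMP22 intronic regulatory element in stable S16 rat Schwann cells; 24 h compound exposure. 460 nm blue signal normalized between DMSO (0%) and potassium clavulanate, with 535 nm FRET tracking viability; curves classed by r2 and response.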
# [9] = qHTS assay for small molecule antagonists of peroxisome proliferator-activated receptor gamma signaling (AID 588537); settings: HEK293 PPARg-UAS-bla, beta-lactamase ratio, antagonist mode; measured here: W460 blue channel
# Outline: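 Fluorescence at 460 and 530 nm (405 nm excitation) reported beta-lactamase cleavage of CCF4 after 2 h room-temperature loading. HEK293 reporter cells in 1% charcoal/dextran-treated FBS had received compound and rosiglitazone for 16 h.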
# [10] = molecular target: Catechol O-methyltransferase (Homo sapiens) (UniProt P21964); assay: Confirmatory Screen for Target Class Profiling of Small Molecule Inhibitors of Methyltransferases (AID 1745852); settings: MTase-Glo luminescence, SAH detection, recombinant enzyme; measured here: COMT inhibition potency
# [11] = molecular target: Histamine N-methyltransferase (Homo sapiens) (UniProt P50135); assay: as above; settings: MTase-Glo luminescence, SAH detection, recombinant enzyme; measured here: HNMT inhibition potency
# [12] = measured here: cell count channel max response
# [13] = measured here: cell number channel AC50
# [14] = measured here: lipid (BODIPY) channel AC50
# [15] = measured here: lipid channel max response
# [16] = measured here: PEO1 parental viability
# [17] = TFE3-RCC UOK109 viability, measured here: UOK109 Z-AUC
# [18] = TFE3-RCC viability, measured here: UOK124 Z-AUC
# [19] = TFE3-RCC viability, measured here: UOK124 cell viability
# [20] = TFE3-RCC viability, measured here: UOK145 Z-AUC
# [21] = TFE3-RCC viability, measured here: UOK145 cell viability
# [22] = measured here: green reporter channel AC50, mouse Pmp22 promoter in mouse Schwann cells
# [23] = measured here: red reporter channel AC50, EF-alpha promoter control reporter in MSC80 mouse Schwann cells
compound,measurement,setting,value
CN1CCC(=C2c3ccccc3C=Cc3ccccc32)CC1,AC50,[1],"15.8 µM [rising, partial curve]"
same,max response,[2]; [12],42.6%
same,AC50,[2]; [13],"3.16 µM [rising, full curve, poor fit]"
same,AC50,[2]; [14],"3.16 µM [rising, full curve, poor fit]"
same,max response,[2]; [15],51.2%
same,AC50,[3],"11.2 µM [falling, partial curve, poor fit]"
same,AC50,[4]; [16],"12.3 µM [falling, partial curve, poor fit]"
same,AC50,[4]; measured here: PEO4 viability,"11 µM [falling, partial curve, poor fit]"
same,z-score,[5]; [17],-0.0916
same,z-score,[5]; [18],-0.151
same,AC50,[5]; [19],"14.8 µM [falling, partial curve]"
same,z-score,[5]; [20],-0.409
same,AC50,[5]; [21],"18.7 µM [falling, partial curve, poor fit]"
COc1cc2c(cc1OC)-c1cc(=Nc3c(C)cc(C)cc3C)n(C)c(=O)n1CC2,max response,[2]; [12],-68.8%
same,AC50,[2]; [13],"44.7 µM [falling, single point]"
same,AC50,[2]; [14],"44.7 µM [falling, single point]"
same,max response,[2]; [15],-67.6%
same,AC50,[6]; [22],"42.6 µM [falling, partial curve]"
same,AC50,[6]; [23],"33.8 µM [falling, partial curve]"
same,AC50,[7]; measured here: CBG/CBR ratio read-out,"5.17 µM [falling, partial curve]"
same,AC50,[7]; measured here: CBR control luciferase (viability counter),"0.731 µM [rising, full curve]"
same,AC50,[8],"22.4 µM [falling, partial curve]"
same,AC50,[3],"22.4 µM [falling, single point]"
Cl/C(=C\n1cncn1)c1ccc(Cl)cc1Cl,max response,[2]; [12],107%
same,AC50,[2]; [13],"14.1 µM [rising, partial curve]"
same,AC50,[2]; [14],"15.8 µM [rising, partial curve]"
same,max response,[2]; [15],132%
same,AC50,[3],"12.6 µM [rising, single point]"
Cc1ncc([N+](=O)[O-])n1CCO,max response,[2]; [12],3.94%
same,AC50,[2]; [13],"0.0141 µM [rising, partial curve, poor fit]"
same,AC50,[2]; [14],"2 µM [rising, partial curve, poor fit]"
same,max response,[2]; [15],4.92%
same,AC50,[9],"70.8 µM [rising, single point]"
same,AC50,[3],"35.5 µM [rising, partial curve, poor fit]"
same,z-score,[5]; [17],-0.534
same,z-score,[5]; [18],0.817
same,z-score,[5]; [20],-0.414
same,AC50,[5]; [21],"0.0132 µM [rising, full curve]"
COC(=O)Nc1nc2ccc(Sc3ccccc3)cc2[nH]1,max response,[2]; [12],-39.5%
same,AC50,[2]; [13],"12.6 µM [falling, partial curve, poor fit]"
same,AC50,[2]; [14],"14.1 µM [falling, partial curve, poor fit]"
same,max response,[2]; [15],-51.8%
same,AC50,[8],"3.01 µM [falling, full curve, poor fit]"
same,AC50,[3],"0.316 µM [falling, full curve, poor fit]"
same,AC50,[4]; [16],"0.275 µM [falling, full curve]"
same,AC50,[4]; measured here: PEO4 viability,"0.219 µM [falling, full curve]"
same,z-score,[5]; [17],0.706
same,z-score,[5]; [18],-0.576
same,AC50,[5]; [19],"1.48 µM [falling, full curve]"
same,z-score,[5]; [20],0.629
same,AC50,[5]; [21],"1.18 µM [falling, full curve]"
O=c1ccc2ccc(O)c(O)c2o1,max response,[2]; [12],-5.71%
same,AC50,[2]; [13],"0.00501 µM [falling, full curve, poor fit]"
same,AC50,[2]; [14],"3.55 µM [falling, full curve, poor fit]"
same,max response,[2]; [15],-0.0858%
same,AC50,[6]; [23],"53.6 µM [falling, partial curve]"
same,IC50,[10],"2.43 µM [rising, full curve]"
same,z-score,[5]; [17],0.178
same,z-score,[5]; [18],0.103
same,z-score,[5]; [20],0.507
same,AC50,[5]; [21],"14.8 µM [falling, partial curve, poor fit]"
Oc1cc2c(c(Cl)c1O)CCNCC2c1ccccc1 (configuration not stated),max response,[2]; [12],51.1%
same,AC50,[2]; [13],"22.4 µM [rising, partial curve, poor fit]"
same,AC50,[2]; [14],"22.4 µM [rising, partial curve, poor fit]"
same,max response,[2]; [15],52.7%
same,AC50,[6]; [23],"37.9 µM [falling, partial curve]"
same,IC50,[10],"24.3 µM [rising, partial curve]"
same,IC50,[11],"19.3 µM [falling, partial curve]"
CCCCc1oc2ccccc2c1C(=O)c1cc(I)c(OCCN(CC)CC)c(I)c1,max response,[2]; [12],-12.4% and -38.5%
same,AC50,[2]; [13],"0.00224 µM [rising, full curve, poor fit]"
same,AC50,[2]; [14],"25.1 µM [falling, partial curve, poor fit]"
same,max response,[2]; [15],-22.3% and -40.7%
same,AC50,[6]; [22],"21.3 µM [falling, full curve]"
same,AC50,[6]; [23],"19 µM [falling, full curve]"
same,AC50,[3],"7.94 µM [falling, partial curve]"
same,AC50,[4]; [16],"24.5 µM [falling, single point]"
same,AC50,[4]; measured here: PEO4 viability,"17.4 µM [falling, single point]"
same,z-score,[5]; [17],-1.39
same,z-score,[5]; [18],0.446
same,AC50,[5]; [19],"33.2 µM [falling, single point]"
same,z-score,[5]; [20],-0.916
same,AC50,[5]; [21],"4.18 µM [falling, full curve]"

# Reformatted: entries from further up.
compound	measurement	setting	value
Cc1ncc([N+](=O)[O-])n1CCO	max response	[2]; [15]	4.92%
same	AC50	[9]	70.8 µM [rising, single point]
same	AC50	[3]	35.5 µM [rising, partial curve, poor fit]
same	z-score	[5]; [17]	-0.534
